Values joined by “and” are separate entries in the source; they are usually repeats but may differ in a detail not shown here. Equal entries are not always repeated. Structures can show the parent of a compound that is named as a salt. The list shows a part of the results. Most values lie at the level of the controls, where differences are scatter.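 Melting temperature was read by differential scanning fluorimetry in a single-replicate pilot screen of a library of approved drugs and clinical or known-target compounds. Compounds raising the melting point by at least 2 °C were the top stabilizing hits, and negative shifts mean destabilization.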 Where a SMILES comes first, the peptide text is derived from it. Bridges are numbered along the chain shown (N, C = ends). [ ]: non-standard residue; d: D form. Orn = NCCC[C@H](N)C(=O)O; Mpa = O=C(O)CCS
Each compound was assayed on SARS-CoV-2 main protease (Mpro, nsp5) (assay: thermal shift ΔTm of Mpro relative to plate average Tm; higher = stronger thermal stabilization of Mpro (binding)). Settings: 10 µM; protein concentration 1 µM.

Compound	thermal shift ΔTm of Mpro
CC(C)c1cc(C=C(C#N)C#N)cc(C(C)C)c1O	0.14 °C
CCOc1ccc2nc3cc(N)ccc3c(N)c2c1 [Ethacridine lactate monohydrate]	1.39 °C
Nc1nc(-n2cc(C(=O)O)c(=O)c3cc(F)c(N4CC(O)C4)c(Cl)c32)c(F)cc1F [Delafloxacin]	0.021 °C
CN(Cc1cnc2nc(N)nc(N)c2n1)c1ccc(C(=O)N[C@@H](CCC(=O)O)C(=O)O)cc1 [Methotrexate]	0.301 °C
O=C(COc1ccc(Cl)cc1)N1CCN(Cc2ccc3c(c2)OCO3)CC1 [Fipexide]	0.0393 °C
CN1CCN(c2c(F)cc3c(=O)c(C(=O)O)cn4c3c2OCN4C)CC1 [Marbofloxacin]	-0.0171 °C
CC(C)(C)CC(C)(C)c1ccc(O)c(Cc2ccc(Cl)cc2Cl)c1 [Clofoctol]	0.225 °C
C[C@H]1[C@H](C)CC[C@]2(C(=O)O)CC[C@]3(C)C(=CC[C@@H]4[C@@]5(C)C[C@@H](O)[C@H](O)[C@@](C)(CO)[C@@H]5CC[C@]43C)[C@H]12 [Asiatic Acid]	0.253 °C
CC(CCc1ccccn1)(CCc1ccccn1)C(=O)c1ccccc1 [JAK2 Inhibitor V]	-0.123 °C
CCOC(=O)c1ccc(N)cc1 [Benzocaine]	-0.14 °C
CCCCCCCCCCCCc1ccc(S(=O)(=O)Nc2nncs2)cc1	-0.348 °C
Oc1c(F)cc(-c2cnccc2-c2ccc(N3CCOCC3)cc2)cc1F	-0.0445 °C
OC(CCCN1CCCCC1)(c1ccccc1)c1ccccc1 [Diphenidol HCl]	-0.0399 °C
CCN(CC)CCOC(=O)C(c1ccccc1)c1ccccc1 [Adiphenine HCl]	0.134 °C
Cc1ncc(Cl)cc1NCc1ccc(C(=O)N[C@@H](CC2CCCC2)C(=O)NC2CC2)s1	-0.213 °C
C=CC(C)(C)c1cc(/C=C/C(=O)c2ccc(O)cc2)c(OC)cc1O [Licochalcone A]	0.565 °C
C[C@]12CC[C@@H]3c4ccc(OS(=O)(=O)O)cc4CC[C@H]3[C@@H]1CCC2=O [Estropipate]	0.00974 °C
COc1cc(NC(C)CCCN)c2ncccc2c1 (configuration not stated) [Primaquine Diphosphate]	-0.0178 °C
O=c1[nH]c(=O)n([C@H]2C[C@H](O)[C@@H](CO)O2)cc1Br [Bromodeoxyuridine (BrdU)]	-0.0296 °C
Nc1ccc([As](=O)(O)O)cc1 [4-Aminophenylarsonic acid]	0.222 °C
CCN(c1cc(C#CCN2CCOCC2)cc(C(=O)NCc2c(C)cc(C)[nH]c2=O)c1C)[C@H]1CC[C@H](N(C)CCOC)CC1	0.309 °C
CCCCCCCc1ccc(CCc2cccc(O)c2C(=O)O)cc1	0.426 °C
Cc1cc(C)cc(Oc2ccc(CNC(=O)[C@H](C)N)cc2C)c1	-0.131 °C

Looked up above.
Under thermal shift ΔTm of Mpro, Cc1ncc(Cl)cc1NCc1ccc(C(=O)N[C@@H](CC2CCCC2)C(=O)NC2CC2)s1 has the entry -0.213 °C
Under thermal shift ΔTm of Mpro, CN(Cc1cnc2nc(N)nc(N)c2n1)c1ccc(C(=O)N[C@@H](CCC(=O)O)C(=O)O)cc1 [Methotrexate] has the entry 0.301 °C

The list goes on.

Compound	thermal shift ΔTm of Mpro
Cc1ccc([N+](=O)[O-])cc1S(=O)(=O)N(C)/N=C/c1cnc2ccc(Br)cn12	-0.192 °C and 0.193 °C
CC/C(=C(/CC)c1ccc(O)cc1)c1ccc(O)cc1 [Diethylstilbestrol]	-0.249 °C
CC1=C(/C=C/C(C)=C/C=C/C(C)=C\C(=O)O)C(C)(C)CCC1 [Isotretinoin]	0.114 °C
NC(N)=Nc1nc(CSCC/C(N)=N/S(N)(=O)=O)cs1 [Famotidine]	0.069 °C
Cc1cc(-c2ccccc2)nnc1NCCN1CCOCC1 [Minaprine dihydrochloride]	0.221 °C
Fc1ccc(NC(=S)Nc2cc(Cl)cc(Cl)c2)cc1 [Fluonilid]	0.0829 °C
COc1ccc(-c2ccc3c(N4CCOCC4)nc(N4C[C@@H](C)O[C@@H](C)C4)nc3n2)cc1CO	0.108 °C
C/C(=C\c1ccc(C(=O)O)cc1)c1ccc2c(c1)C(C)(C)CCC2(C)C [TTNPB (Arotinoid Acid)]	-0.167 °C
CC(C)c1cc2c(N3CCN(C4=NCC(C)(C)S4)CC3)ncnc2s1 [MI-3 (Menin-MLL Inhibitor)]	-0.189 °C
COc1cc(OC)c(/C=C/S(=O)(=O)Cc2ccc(OC)c(NCC(=O)O)c2)c(OC)c1	0.645 °C
C=C[C@H]1CN2CC[C@]3(C(=O)Nc4ccccc43)[C@@H]2C[C@@H]1/C(=C\OC)C(=O)OC [Corynoxeine]	-0.0624 °C
O=c1[nH]c2ccc(Cl)cc2c(N[C@@H]2CN3CCC2CC3)c1-c1nc2ccccc2[nH]1	-0.354 °C
OC(CN1CCN(c2cccc(Cl)c2)CC1)C(c1ccccc1)c1ccccc1 (configuration not stated)	-0.255 °C
Cc1nc(-c2ccc(OCC(C)C)c(C#N)c2)sc1C(=O)O [Febuxostat]	-0.074 °C
C[C@@H](O)[C@H]1C(=O)N2C(C(=O)[O-])=C(SC3Cn4cnc[n+]4C3)[C@H](C)[C@H]12 (some centres not stated) [Biapenem]	-0.0028 °C
CN(C)c1ccc(C(=C2C=CC(=[N+](C)C)C=C2)c2ccc(N(C)C)cc2)cc1 [Crystal Violet]	-0.164 °C
CC(=O)[C@H]1CC[C@H]2[C@@H]3CC=C4C[C@@H](O)CC[C@]4(C)[C@H]3CC[C@]12C [Pregnenolone]	0.00904 °C
COc1ccc(-c2cc(=O)c3c(OC)cc(OC)c(OC)c3o2)cc1OC [Isosinensetin]	-0.0765 °C
COc1ccc(CC2c3cc(OC)c(OC)cc3CC[N+]2(C)CCC(=O)OCCCCCOC(=O)CC[N+]2(C)CCc3cc(OC)c(OC)cc3C2Cc2ccc(OC)c(OC)c2)cc1OC (configuration not stated) [Atracurium Besylate]	0.0126 °C
Oc1cc2c(cc1O)[C@@H]1c3ccc(O)c(O)c3OC[C@]1(O)C2 [Hematoxylin]	-3.9 °C
CC(C(=O)O)c1ccc2c(c1)CC(=O)c1ccccc1S2 (configuration not stated) [Zaltoprofen]	-0.0837 °C
CCN(CCO)CCCC(C)Nc1ccnc2cc(Cl)ccc12 (configuration not stated) [Hydroxychloroquine sulfate]	0.279 °C
Cc1nc(Nc2ncc(C(=O)Nc3c(C)cccc3Cl)s2)cc(N2CCN(CCO)CC2)n1 [Dasatinib]	-0.177 °C

Quoted at random: 3 entries already listed.
Compound	thermal shift ΔTm of Mpro
Cc1nc(-c2ccc(OCC(C)C)c(C#N)c2)sc1C(=O)O [Febuxostat]	-0.074 °C
C[C@@H](O)[C@H]1C(=O)N2C(C(=O)[O-])=C(SC3Cn4cnc[n+]4C3)[C@H](C)[C@H]12 (some centres not stated) [Biapenem]	-0.0028 °C
COc1ccc(-c2cc(=O)c3c(OC)cc(OC)c(OC)c3o2)cc1OC [Isosinensetin]	-0.0765 °C

(cont.)

Compound	thermal shift ΔTm of Mpro
Cc1nc(Nc2ncc(C(=O)Nc3c(C)cccc3Cl)s2)cc(N2CCN(CCO)CC2)n1 [Dasatinib Monohydrate]	-0.151 °C
COc1cc(N2CCC(N3CCN(C)CC3)CC2)ccc1Nc1ncnc(Nc2ccccc2S(=O)(=O)C(C)C)n1	-0.166 °C
CCN1CCN(Cc2ccc(-c3cc4c(N[C@H](C)c5ccccc5)ncnc4[nH]3)cc2)CC1	0.425 °C
CCOC(=O)c1c(CSc2ccccc2)n(C)c2cc(Br)c(O)c(CN(C)C)c12 [Arbidol HCl]	0.0548 °C
Cn1cc(-c2cc(Oc3cc(F)c(NC(=O)C4(C(=O)Nc5ccccc5)CC4)cc3F)ccn2)cn1	-0.0154 °C
Cc1cc(Nc2nc(N[C@@H](C)c3ccc(F)cc3)c(C#N)cc2F)n[nH]1	0.0374 °C
CCOC(=O)c1[nH]c2cc(Cl)ccc2c1C(C(=O)NC(C)(C)C)N(C=O)Cc1ccc(Cl)cc1 (configuration not stated)	-0.171 °C
COc1cc(/C=C/c2ccc(OC)cc2OC)cc(OC)c1	-0.0473 °C
CO/N=C1\C[C@]2(C[C@@H]3C[C@@H](C/C=C(\C)C[C@@H](C)/C=C/C=C4\CO[C@@H]5[C@H](O)C(C)=C[C@@H](C(=O)O3)[C@]45O)O2)O[C@H](/C(C)=C/C(C)C)[C@H]1C [Moxidectin]	-0.409 °C
CCCCN1CCCCC1C(=O)Nc1c(C)cccc1C (configuration not stated) [Bupivacaine HCl]	-0.0476 °C
C[C@H]1O[C@@H](Oc2c(-c3cc(O)c(O)c(O)c3)oc3cc(O)cc(O)c3c2=O)[C@@H](O)[C@@H](O)[C@@H]1O [Myricitrin]	0.579 °C
CCOC(=O)C1=C(COCCN)NC(C)=C(C(=O)OC)[C@@H]1c1ccccc1Cl [(S)-Amlodipine Besylate]	-0.0202 °C
N[C@@]1(C(=O)O)CS(=O)(=O)[C@H]2[C@H](C(=O)O)[C@H]21	-0.0102 °C
C=C1/C(=C\C=C2/CCC[C@]3(C)[C@@H]([C@H](C)/C=C/[C@H](C)C(C)C)CC[C@@H]23)C[C@@H](O)C[C@@H]1O [Doxercalciferol]	0.19 °C
Cc1ccc2c(=O)c3cccc(CC(=O)O)c3oc2c1C [DMXAA (Vadimezan)]	-0.183 °C
CCC(=C(c1ccc(O)cc1)c1ccc(OCCNC)cc1)c1ccccc1 [Endoxifen Z-isomer]	0.00689 °C
O=C1Nc2ccccc2/C1=C/c1ccc(F)cc1	-0.103 °C
CC(COc1ccccc1)NC(C)C(O)c1ccc(O)cc1 (configuration not stated) [Isoxsuprine hydrochloride]	0.226 °C
C=CC(=O)Nc1ccc(CN2C(=O)N(c3cc(OC)cc(OC)c3)Cc3cnc(Nc4ccc(N5CCN(C)CC5)cc4)nc32)cc1	0.349 °C
Nc1ccc(S(=O)(=O)Nc2ccccn2)cc1 [Sulfapyridine]	0.114 °C
Cn1cc(-c2ccncc2)c(-c2ccc(OCc3ccc4ccccc4n3)cc2)n1	-0.389 °C
O=C(O)[C@H]1O[C@@H](Oc2cc3oc(-c4ccccc4)cc(=O)c3c(O)c2O)[C@H](O)[C@@H](O)[C@@H]1O [Baicalin]	0.212 °C
O=c1[nH]c(=O)c2ccccc2o1 [Carsalame]	0.039 °C

Compound	thermal shift ΔTm of Mpro
Cc1[nH]c2ccccc2c1CCNCc1ccc(/C=C/C(=O)NO)cc1 [Panobinostat (LBH589)]	0.054 °C
COc1ccnc(C[S+]([O-])c2nc3cc(OC(F)F)ccc3[nH]2)c1OC (configuration not stated) [Pantoprazole Sodium Hydrate]	0.0387 °C
Cc1cc(C)c(S(=O)(=O)n2cc(C)cc2C)c(C)c1	-0.309 °C
COC1CCN(C(=O)c2cc(Cc3n[nH]c(=O)c4ccccc34)ccc2F)CC1	-0.0834 °C
CC(=O)N[C@@H](C=O)[C@@H](O)[C@H](O)[C@H](O)CO [N-Acetyl-D-Glucosamine]	0.0292 °C
c1cncc(CN2CCC(n3ncc4c(N5CCOCC5)nc(-c5ccc6[nH]ccc6c5)nc43)CC2)c1	-0.303 °C
CN(C)CC#Cc1ccc(OCCCc2sc(N3CCc4cccc(C(=O)Nc5nc6ccccc6s5)c4C3)nc2C(=O)O)c(F)c1	-0.207 °C
CNCCN(C)Cc1c[nH]nc1-c1ccc(O[C@H]2C[C@H](OCCC3CCOCC3)C2)cc1	-0.015 °C
O=C1C(=O)c2ccccc2C(O)=C1C1CCC(c2ccc(Cl)cc2)CC1 (configuration not stated) [Atovaquone]	0.239 °C
CCN(CC)C(=O)c1ccc(C2=CC3(CCNCC3)Oc3cccc(O)c32)cc1	-0.011 °C
CCOc1ccccc1OC(c1ccccc1)C1CNCCO1 (configuration not stated) [Reboxetine mesylate]	-0.0845 °C
O=c1[nH]cnc2c1ncn2[C@@H]1O[C@H](CO)[C@@H](O)[C@H]1O [Inosine]	-0.0704 °C
CC(=O)N1CCC2(CC1)c1cc(C#C[C@H]3O[C@H](CO)[C@@H](O)[C@H](O)[C@@H]3O)ccc1-c1ccc(C#C[C@H]3O[C@H](CO)[C@@H](O)[C@H](O)[C@@H]3O)cc12 [Antibiotic-202]	0.032 °C
O=C1NC(=O)/C(=C/c2ccc3c(c2)OC(F)(F)O3)S1	0.197 °C
N#CC(C#N)=Cc1ccc([N+](=O)[O-])c(O)c1	0.0764 °C
COc1cc([C@@H]2c3cc4c(cc3[C@@H](O[C@@H]3O[C@@H]5CO[C@@H](c6cccs6)O[C@H]5[C@H](O)[C@H]3O)[C@H]3COC(=O)[C@H]23)OCO4)cc(OC)c1O [Teniposide]	-0.116 °C
Cc1nc(-c2cccnc2)sc1C(=O)Nc1ccccc1-c1cn2c(CN3CCOCC3)csc2n1	-0.0813 °C
CCOc1ccc(C[C@H]2NC(=O)CCSSC[C@@H](C(=O)N3CCC[C@H]3C(=O)N[C@@H](CCCN)C(=O)NCC(N)=O)NC(=O)[C@H](CC(N)=O)NC(=O)[C@H]([C@@H](C)O)NC(=O)[C@H]([C@@H](C)CC)NC2=O)cc1 [Atosiban] ([Mpa][dY](Et)ITNCP[Orn]G-NH2; disulfide 1-6)	0.0181 °C
c1ccc2c(c1)[nH]c1cnccc12 [Norharmane]	0.0472 °C
O=C(O)c1c[nH]c2cc(Cl)c(-c3ccc(C4(O)CCC4)cc3)cc12	-0.0873 °C
O=c1ccc2ccccc2o1 [Coumarin]	-0.0174 °C
Nc1ccc(C(=O)Nc2cccc(-c3nc(N4CCOCC4)c4oc5ncccc5c4n3)c2)cn1	0.142 °C
CN(C)CCCN1c2ccccc2Sc2ccc(Cl)cc21 [Chlorpromazine HCl]	-0.0442 °C

Source: the supplement of paper PMC8166895
